Data published in the supplement of paper PMC11006884.
The list shows a part of the results, in another mix than the full data.

The chains behind the UniProt entries cited, without tags or fusion partners. Where a name states a change or a piece, a line headed by the entry shows the natural chain unless it says otherwise.
UniProt P11413, whole entry, looked up: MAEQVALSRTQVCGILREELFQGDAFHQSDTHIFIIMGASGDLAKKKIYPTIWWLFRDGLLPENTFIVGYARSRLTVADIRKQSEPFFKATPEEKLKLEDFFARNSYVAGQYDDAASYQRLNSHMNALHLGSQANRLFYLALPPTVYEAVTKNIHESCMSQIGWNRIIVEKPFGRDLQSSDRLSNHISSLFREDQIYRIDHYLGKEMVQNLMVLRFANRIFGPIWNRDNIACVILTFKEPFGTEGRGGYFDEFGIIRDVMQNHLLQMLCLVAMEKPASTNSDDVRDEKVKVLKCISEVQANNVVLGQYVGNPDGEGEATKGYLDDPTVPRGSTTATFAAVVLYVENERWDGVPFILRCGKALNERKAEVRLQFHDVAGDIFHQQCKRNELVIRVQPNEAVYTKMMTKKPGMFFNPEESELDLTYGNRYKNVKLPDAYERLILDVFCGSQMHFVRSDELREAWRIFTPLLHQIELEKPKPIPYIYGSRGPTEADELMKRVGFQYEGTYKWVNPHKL
UniProt P13807: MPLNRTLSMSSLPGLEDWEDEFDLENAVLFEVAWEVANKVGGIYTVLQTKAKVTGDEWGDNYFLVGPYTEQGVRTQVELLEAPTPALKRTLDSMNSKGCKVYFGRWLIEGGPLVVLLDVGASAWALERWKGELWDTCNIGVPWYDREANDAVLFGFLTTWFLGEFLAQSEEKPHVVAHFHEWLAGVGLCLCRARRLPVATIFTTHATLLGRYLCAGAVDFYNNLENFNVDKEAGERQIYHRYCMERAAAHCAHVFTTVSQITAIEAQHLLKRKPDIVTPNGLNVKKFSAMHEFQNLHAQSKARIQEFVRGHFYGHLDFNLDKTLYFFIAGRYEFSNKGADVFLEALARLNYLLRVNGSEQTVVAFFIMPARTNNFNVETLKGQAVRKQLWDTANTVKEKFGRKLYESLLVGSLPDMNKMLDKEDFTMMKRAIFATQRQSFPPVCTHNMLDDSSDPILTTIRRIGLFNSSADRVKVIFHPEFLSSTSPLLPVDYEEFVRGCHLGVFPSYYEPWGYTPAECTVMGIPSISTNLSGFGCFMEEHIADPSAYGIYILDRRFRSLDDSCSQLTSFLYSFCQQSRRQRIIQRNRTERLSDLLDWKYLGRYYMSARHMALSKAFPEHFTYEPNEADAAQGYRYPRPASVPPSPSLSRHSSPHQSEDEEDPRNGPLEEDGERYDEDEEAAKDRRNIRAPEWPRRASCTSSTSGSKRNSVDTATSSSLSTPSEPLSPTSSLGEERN
UniProt P11310: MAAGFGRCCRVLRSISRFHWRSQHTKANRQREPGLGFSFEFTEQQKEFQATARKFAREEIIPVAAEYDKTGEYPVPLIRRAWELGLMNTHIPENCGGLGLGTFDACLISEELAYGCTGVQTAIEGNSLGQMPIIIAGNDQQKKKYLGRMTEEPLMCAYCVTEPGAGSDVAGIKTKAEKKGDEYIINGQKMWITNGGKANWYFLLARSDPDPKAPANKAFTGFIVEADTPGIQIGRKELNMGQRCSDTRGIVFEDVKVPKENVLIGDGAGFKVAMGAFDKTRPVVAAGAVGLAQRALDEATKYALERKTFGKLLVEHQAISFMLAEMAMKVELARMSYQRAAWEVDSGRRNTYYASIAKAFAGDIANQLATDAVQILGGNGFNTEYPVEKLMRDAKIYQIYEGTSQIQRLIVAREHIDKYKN
UniProt P09211: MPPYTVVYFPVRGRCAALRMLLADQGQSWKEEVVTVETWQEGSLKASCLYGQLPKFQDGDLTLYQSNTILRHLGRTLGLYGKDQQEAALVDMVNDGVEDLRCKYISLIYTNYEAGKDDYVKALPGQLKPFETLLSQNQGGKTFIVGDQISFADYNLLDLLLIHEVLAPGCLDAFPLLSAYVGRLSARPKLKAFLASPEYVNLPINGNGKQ
UniProt P11940, whole entry, looked up: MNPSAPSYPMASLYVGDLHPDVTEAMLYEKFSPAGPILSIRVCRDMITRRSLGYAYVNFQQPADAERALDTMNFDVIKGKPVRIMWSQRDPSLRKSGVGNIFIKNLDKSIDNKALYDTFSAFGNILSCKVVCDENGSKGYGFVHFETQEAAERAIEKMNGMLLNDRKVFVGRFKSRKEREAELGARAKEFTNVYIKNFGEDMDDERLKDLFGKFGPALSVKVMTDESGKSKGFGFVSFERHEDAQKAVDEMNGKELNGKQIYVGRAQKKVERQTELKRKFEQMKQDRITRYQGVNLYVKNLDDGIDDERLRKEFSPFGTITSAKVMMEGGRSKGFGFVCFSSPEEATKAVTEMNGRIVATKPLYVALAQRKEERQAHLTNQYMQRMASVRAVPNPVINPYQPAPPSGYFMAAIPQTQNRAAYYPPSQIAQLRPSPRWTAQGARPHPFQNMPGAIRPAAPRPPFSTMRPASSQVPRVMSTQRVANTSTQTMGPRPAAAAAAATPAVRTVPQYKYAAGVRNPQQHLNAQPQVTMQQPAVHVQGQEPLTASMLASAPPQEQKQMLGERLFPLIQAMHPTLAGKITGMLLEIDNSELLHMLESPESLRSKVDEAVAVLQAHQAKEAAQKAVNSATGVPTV
UniProt P17844: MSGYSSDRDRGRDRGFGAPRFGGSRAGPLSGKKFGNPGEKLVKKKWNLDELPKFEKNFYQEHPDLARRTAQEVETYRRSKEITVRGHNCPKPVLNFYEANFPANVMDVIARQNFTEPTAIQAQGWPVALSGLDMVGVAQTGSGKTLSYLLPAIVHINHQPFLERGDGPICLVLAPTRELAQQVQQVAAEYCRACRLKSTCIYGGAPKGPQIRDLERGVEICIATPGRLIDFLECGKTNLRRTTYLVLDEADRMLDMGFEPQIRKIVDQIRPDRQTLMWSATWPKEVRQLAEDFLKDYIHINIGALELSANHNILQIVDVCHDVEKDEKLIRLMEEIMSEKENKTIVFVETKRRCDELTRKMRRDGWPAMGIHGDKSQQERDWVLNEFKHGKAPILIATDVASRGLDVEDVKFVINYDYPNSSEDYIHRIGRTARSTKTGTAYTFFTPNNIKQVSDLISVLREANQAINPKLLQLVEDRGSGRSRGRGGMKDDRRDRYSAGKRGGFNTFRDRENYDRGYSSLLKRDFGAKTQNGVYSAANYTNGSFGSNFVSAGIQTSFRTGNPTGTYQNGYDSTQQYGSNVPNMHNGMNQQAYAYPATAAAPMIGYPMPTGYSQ
UniProt P08574: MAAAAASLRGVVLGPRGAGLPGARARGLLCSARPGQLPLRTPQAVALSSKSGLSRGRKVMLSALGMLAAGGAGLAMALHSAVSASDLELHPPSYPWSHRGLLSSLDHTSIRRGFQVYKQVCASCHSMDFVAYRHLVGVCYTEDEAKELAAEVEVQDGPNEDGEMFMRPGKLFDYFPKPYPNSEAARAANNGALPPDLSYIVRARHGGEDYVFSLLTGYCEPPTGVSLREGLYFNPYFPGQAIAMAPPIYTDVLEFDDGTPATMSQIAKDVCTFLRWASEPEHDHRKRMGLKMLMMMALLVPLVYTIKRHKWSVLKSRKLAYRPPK
UniProt P07954: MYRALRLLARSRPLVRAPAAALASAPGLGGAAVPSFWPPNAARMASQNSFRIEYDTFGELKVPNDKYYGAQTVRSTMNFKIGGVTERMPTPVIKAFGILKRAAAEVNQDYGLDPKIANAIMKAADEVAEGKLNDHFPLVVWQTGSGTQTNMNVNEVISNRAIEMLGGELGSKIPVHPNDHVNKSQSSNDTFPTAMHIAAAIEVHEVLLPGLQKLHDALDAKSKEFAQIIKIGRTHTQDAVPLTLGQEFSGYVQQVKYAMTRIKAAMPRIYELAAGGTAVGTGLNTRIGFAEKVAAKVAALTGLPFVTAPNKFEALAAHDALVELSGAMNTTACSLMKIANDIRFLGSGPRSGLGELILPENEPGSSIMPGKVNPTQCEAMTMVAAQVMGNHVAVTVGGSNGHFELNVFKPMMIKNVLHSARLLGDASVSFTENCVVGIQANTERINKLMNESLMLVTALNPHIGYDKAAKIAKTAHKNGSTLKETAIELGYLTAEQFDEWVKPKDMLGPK
UniProt P09382, whole entry, looked up: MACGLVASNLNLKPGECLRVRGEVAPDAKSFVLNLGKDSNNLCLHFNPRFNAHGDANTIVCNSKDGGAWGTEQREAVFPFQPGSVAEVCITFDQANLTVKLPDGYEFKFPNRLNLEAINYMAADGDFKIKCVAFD
UniProt P0CG30: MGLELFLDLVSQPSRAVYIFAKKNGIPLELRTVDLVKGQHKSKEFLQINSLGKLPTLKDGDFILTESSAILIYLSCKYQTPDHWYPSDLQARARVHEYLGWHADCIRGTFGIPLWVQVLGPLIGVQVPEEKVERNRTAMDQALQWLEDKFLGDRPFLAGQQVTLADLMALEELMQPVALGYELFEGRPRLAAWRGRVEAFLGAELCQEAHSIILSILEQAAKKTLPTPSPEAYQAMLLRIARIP
UniProt P08670, whole entry: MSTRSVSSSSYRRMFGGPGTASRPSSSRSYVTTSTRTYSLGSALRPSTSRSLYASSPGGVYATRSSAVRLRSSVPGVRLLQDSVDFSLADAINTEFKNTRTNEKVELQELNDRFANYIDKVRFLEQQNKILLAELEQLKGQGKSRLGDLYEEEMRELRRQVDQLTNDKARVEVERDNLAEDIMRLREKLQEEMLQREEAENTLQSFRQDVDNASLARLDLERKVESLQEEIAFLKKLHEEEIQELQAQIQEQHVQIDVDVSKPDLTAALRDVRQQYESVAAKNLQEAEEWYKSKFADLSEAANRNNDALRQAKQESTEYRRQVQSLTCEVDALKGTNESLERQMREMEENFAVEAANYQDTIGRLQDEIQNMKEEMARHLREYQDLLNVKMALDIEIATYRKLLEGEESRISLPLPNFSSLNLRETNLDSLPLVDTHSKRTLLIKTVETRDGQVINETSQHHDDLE
UniProt P08240: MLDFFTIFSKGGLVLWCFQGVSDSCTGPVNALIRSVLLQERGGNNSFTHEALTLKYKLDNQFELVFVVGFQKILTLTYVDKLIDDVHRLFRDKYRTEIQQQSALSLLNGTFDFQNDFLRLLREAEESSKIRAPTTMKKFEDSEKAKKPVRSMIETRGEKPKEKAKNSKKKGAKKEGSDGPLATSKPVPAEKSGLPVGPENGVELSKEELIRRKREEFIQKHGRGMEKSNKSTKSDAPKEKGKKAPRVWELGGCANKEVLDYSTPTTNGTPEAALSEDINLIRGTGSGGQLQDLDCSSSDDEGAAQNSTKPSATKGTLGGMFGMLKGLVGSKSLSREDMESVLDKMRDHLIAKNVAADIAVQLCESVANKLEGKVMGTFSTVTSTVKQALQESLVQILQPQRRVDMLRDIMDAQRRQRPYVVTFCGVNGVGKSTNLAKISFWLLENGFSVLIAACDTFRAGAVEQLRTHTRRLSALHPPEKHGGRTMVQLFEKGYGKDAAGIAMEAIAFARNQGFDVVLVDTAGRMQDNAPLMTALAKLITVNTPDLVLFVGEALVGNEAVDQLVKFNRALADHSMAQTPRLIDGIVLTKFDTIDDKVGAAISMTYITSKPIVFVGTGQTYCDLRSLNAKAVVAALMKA
UniProt P13667: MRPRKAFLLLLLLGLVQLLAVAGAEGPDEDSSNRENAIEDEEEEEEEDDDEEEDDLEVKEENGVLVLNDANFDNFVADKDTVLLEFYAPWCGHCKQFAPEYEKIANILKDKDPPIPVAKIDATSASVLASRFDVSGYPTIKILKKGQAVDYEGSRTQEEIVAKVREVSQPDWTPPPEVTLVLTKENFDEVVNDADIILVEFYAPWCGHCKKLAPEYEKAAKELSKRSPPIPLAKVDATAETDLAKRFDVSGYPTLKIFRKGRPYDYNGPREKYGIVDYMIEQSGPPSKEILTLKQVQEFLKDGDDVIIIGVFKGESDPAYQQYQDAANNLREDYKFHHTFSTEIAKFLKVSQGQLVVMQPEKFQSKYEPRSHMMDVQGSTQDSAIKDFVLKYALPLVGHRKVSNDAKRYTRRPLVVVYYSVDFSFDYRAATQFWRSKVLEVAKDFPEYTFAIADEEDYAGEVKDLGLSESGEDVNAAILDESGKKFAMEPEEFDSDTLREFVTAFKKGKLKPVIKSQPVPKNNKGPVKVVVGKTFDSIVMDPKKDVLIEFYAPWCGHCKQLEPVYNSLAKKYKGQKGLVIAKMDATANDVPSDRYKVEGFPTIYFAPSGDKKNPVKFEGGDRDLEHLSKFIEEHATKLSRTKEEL

compound: COC(=O)C#Cc1ccccc1 [methyl 3-phenylpropiolate]; assay: log2 ratio of iodoacetamide-alkyne labeling of the cysteine site, DMSO over compound (competition); higher = stronger covalent engagement of the cysteine by the compound, active = 1 or more; conditions: 500 µM; treatment time 1 h; system: HEK293T cell lysate
Method in brief: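 HEK293T lysate (2 mg/mL) was treated with DMSO or electrophile (500 µM, 1 h, ambient temperature), then iodoacetamide alkyne (1 h), clicked to sCIP-TMT reagents, pooled, trypsin-digested overnight at 37 °C, streptavidin-enriched and acid-eluted. Peptides were run on Orbitrap Eclipse LC-MS/MS with FAIMS and quantified in FragPipe. The log2 competition ratio per cysteine is mean control-channel over mean compound-channel reporter intensity. Duplicate channels and three replicates were used, and cysteines quantified in only one replicate were excluded.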

log2 ratio of iodoacetamide-alkyne labeling, inactive:
G6PD C158 (UniProt P11413) -0.00254, GYS1 C699 (UniProt P13807) 0.526, ACADM C159 (UniProt P11310) 0.666, GSTP1 C48 (UniProt P09211) -0.15, PABPC1 C132 (UniProt P11940) 0.0505, HSP90AA1 C481 (UniProt P07900) 0.0571, DDX5 C170 (UniProt P17844) 0.272, CYC1 C219 (UniProt P08574) 0.0599, FH C434 (UniProt P07954) 0.395, EPRS C680 (UniProt P07814) 0.00776, LGALS1 C17 (UniProt P09382) 0.195, PABPC1 C128 (UniProt P11940) -0.0389, EEF2 C67 (UniProt P13639) -0.0192, G6PD C385 (UniProt P11413) 0.327, UniProt P0CG30_C105 -0.204, VIM C328 (UniProt P08670) 0.179, U2AF1L5 C102 (UniProt P0DN76) 0.445, EEF2 C693 (UniProt P13639) 0.0212, UniProt P08240_C424 0.273, PDIA4 C209 (UniProt P13667) 0.77, AKR1B1 C299 (UniProt P15121) 0.135, CYC1 C271 (UniProt P08574) 0.0519
